No constants are given. Whether binding was seen depends on the method and setting. In cells and extracts the contact can be indirect. Some binding calls cover weakened binding; strength is not graded here.
Assays:
[1] = biological target: endogenous Itch (mouse) (mouse (endogenous in MEFs, CD1 mouse cerebellum and Ptch+/- MB tissue)) (UniProt Q8C863); experiment: co-IP; anti-Itch IP from lysates of CD1 mouse cerebellum (P3, P7, P10, P15) and of Ptch+/- MB tissue
[2] = biological target: endogenous Itch (mouse) (mouse (endogenous in MEFs, CD1 mouse cerebellum and Ptch+/- MB tissue)) (UniProt Q8C863); experiment: co-IP; βArr2-/- MEFs with or without transfected HA-β-arrestin2; IP and immunoblot with the indicated antibodies
Flag-Itch [3] = biological target: Flag-Itch (UniProt Q96J02); experiment: co-IP; NIH3T3 cells transfected with Flag-Itch and HA-SuFu or HA-β-arrestin2, treated with SAG (200 nM for 6 h) or vehicle; anti-Flag IP
Flag-Itch [4] = biological target: Flag-Itch (UniProt Q96J02); experiment: co-IP; WT MEFs transfected with combinations of Flag-Itch, GFP-β-arrestin2 and HA-SuFu; anti-Flag IP (1st IP), two elutions with Flag peptide, re-IP with HA-agarose (2nd IP)
[5] = biological target: endogenous Itch (mouse) (mouse (endogenous in MEFs, CD1 mouse cerebellum and Ptch+/- MB tissue)) (UniProt Q8C863); experiment: co-IP; βArr2-/- MEFs with or without transfected HA-β-arrestin2; IP and immunoblot with the indicated antibodies; remark: listed apart in the source
[6] = biological target: endogenous Gli3 (mouse) (mouse (endogenous in MEFs and CD1 mouse cerebellum)) (UniProt Q61602); experiment: co-IP; anti-Gli3 IP from lysates of WT MEFs (siItch or siCTR) and of Itch-/- MEFs transfected with the indicated plasmids; immunoblot of SuFu, ratio to Gli3FL
[7] = biological target: endogenous Gli3 (mouse) (mouse (endogenous in MEFs and CD1 mouse cerebellum)) (UniProt Q61602); experiment: co-IP; anti-Gli3 IP from lysates of CD1 mouse cerebellum (P3, P7, P10, P15)

Protein sequences, listed by entry. Tags and fused reporters are not part of them. Lines headed by an entry give the natural chain unless they say otherwise; changes in a name come on top. Chains listed by the source or under a name are the forms on record and can include a tag or linker.
UniProt Q8C863: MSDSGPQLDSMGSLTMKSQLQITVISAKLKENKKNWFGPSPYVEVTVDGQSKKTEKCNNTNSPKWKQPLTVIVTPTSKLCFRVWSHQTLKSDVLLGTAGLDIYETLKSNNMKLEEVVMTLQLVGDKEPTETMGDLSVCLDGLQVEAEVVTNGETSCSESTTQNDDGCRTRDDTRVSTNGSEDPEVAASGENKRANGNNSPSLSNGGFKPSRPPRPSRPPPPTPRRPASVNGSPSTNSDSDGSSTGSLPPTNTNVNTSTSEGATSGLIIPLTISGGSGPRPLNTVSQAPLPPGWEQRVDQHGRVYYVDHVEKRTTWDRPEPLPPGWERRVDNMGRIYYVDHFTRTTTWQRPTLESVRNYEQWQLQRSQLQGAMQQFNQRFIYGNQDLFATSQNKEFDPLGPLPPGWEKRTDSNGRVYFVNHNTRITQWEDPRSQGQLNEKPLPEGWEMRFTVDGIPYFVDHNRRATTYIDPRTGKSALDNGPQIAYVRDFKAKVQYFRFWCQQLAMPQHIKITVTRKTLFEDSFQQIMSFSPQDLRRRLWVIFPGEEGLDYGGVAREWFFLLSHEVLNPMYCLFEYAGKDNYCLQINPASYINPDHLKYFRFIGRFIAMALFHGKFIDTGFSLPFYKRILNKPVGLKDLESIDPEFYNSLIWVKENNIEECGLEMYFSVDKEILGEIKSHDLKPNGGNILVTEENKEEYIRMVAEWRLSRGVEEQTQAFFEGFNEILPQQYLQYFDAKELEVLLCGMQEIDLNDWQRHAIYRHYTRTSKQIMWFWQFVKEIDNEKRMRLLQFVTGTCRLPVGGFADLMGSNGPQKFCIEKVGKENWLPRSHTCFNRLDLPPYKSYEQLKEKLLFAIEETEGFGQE
Flag-Itch (Q96J02, form named): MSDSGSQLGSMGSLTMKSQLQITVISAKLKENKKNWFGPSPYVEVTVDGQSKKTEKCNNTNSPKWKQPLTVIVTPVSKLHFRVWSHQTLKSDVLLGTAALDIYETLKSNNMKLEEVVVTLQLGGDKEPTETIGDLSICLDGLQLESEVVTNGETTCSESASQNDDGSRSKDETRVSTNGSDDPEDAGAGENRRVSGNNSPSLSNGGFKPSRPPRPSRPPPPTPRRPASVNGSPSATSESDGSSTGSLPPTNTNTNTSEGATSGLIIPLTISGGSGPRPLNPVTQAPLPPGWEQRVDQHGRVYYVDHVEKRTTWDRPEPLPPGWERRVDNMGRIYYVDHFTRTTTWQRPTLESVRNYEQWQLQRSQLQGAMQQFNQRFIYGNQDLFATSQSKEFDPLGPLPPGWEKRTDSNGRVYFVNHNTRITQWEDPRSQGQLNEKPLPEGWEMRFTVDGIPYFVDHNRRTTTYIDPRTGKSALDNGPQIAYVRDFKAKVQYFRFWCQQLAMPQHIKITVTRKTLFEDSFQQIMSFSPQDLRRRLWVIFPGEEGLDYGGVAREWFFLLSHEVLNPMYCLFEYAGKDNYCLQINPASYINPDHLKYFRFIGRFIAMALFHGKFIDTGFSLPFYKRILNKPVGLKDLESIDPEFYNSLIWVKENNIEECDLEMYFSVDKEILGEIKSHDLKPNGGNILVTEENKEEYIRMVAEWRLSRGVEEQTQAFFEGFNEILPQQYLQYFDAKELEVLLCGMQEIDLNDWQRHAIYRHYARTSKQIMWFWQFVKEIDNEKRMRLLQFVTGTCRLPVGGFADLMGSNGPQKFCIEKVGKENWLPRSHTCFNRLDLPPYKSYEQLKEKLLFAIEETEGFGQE
UniProt Q61602: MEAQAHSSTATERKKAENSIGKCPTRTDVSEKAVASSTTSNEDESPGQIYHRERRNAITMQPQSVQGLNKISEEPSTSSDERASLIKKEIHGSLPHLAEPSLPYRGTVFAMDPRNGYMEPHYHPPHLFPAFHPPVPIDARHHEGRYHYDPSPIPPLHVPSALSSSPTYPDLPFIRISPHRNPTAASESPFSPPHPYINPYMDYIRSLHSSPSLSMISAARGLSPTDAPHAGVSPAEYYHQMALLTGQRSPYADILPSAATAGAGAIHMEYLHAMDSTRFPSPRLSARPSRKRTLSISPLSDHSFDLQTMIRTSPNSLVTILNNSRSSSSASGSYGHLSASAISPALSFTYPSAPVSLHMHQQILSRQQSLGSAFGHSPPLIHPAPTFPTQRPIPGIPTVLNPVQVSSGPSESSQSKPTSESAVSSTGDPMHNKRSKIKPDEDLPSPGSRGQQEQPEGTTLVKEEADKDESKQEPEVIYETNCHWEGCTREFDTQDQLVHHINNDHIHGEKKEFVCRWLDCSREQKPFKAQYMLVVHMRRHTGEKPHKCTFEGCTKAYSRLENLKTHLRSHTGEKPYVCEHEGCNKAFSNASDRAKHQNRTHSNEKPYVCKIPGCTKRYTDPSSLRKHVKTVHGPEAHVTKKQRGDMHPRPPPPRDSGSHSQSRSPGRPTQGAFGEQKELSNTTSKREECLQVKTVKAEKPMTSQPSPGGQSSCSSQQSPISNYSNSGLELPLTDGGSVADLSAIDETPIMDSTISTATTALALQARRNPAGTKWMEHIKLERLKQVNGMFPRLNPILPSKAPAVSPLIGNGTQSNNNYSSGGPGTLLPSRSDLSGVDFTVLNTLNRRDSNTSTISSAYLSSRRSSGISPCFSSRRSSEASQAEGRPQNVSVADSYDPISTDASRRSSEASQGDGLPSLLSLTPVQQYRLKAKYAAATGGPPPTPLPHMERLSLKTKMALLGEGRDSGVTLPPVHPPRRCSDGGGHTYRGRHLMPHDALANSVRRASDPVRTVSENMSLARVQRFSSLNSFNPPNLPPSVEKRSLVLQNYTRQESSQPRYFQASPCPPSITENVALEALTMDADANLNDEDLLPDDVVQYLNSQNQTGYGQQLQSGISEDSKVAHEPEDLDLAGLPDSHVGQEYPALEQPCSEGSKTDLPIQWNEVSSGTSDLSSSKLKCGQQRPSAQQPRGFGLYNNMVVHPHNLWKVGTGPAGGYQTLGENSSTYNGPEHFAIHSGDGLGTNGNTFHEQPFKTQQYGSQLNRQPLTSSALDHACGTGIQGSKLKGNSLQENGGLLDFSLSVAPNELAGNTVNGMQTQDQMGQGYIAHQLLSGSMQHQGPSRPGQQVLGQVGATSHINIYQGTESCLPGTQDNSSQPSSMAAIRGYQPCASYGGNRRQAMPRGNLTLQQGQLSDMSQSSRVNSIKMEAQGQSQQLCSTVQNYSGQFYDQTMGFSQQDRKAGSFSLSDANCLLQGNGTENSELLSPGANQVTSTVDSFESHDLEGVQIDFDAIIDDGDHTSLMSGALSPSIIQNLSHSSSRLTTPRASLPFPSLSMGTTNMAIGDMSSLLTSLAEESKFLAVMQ
UniProt Q91YI4: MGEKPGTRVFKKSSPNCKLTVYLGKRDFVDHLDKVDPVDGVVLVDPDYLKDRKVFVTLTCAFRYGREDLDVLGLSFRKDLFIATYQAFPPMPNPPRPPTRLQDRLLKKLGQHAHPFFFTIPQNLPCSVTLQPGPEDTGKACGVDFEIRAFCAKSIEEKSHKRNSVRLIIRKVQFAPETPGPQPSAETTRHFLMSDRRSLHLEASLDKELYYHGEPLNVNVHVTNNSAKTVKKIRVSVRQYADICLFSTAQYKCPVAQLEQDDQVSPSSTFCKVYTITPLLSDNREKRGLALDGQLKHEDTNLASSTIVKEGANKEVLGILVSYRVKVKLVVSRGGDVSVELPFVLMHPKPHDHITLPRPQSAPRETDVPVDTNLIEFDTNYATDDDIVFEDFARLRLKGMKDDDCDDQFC
UniProt P32121: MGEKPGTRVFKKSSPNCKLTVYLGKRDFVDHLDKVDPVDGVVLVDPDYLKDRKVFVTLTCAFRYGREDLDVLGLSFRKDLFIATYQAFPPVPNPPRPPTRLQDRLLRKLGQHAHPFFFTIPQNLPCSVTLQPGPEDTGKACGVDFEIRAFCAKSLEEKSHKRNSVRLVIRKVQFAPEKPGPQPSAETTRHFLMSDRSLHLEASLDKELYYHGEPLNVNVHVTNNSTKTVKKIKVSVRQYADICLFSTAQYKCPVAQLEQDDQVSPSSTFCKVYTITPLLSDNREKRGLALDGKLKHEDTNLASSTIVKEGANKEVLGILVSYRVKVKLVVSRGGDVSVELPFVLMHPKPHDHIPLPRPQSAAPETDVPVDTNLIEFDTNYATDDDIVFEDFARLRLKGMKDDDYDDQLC

Molecule: endogenous β-arrestin2 (mouse) (from UniProt Q91YI4 1-410)
- binding [1]: binds

Molecule: HA-β-arrestin2 (from UniProt P32121 1-409)
- binding [2]: binds
- binding (Flag-Itch [3]): binds

Molecule: GFP-β-arrestin2 (from UniProt P32121 1-409)
- binding (Flag-Itch [4]): binds

B1: endogenous SuFu (mouse) (protein, UniProt Q9Z0P7 1-484)
chain: MAELRPSVAPGPAAPPASGPSAPPAFASLFPPGLHAIYGECRRLYPDQPNPLQVTAIVKYWLGGPDPLDYVSMYRNMGSPSANIPEHWHYISFGLSDLYGDNRVHEFTGTDGPSGFGFELTFRLKRETGESAPPTWPAELMQGLARYVFQSENTFCSGDHVSWHSPLDNSESRIQHMLLTEDPQMQPVRTPFGVVTFLQIVGVCTEELHSAQQWNGQGILELLRTVPIAGGPWLITDMRRGETIFEIDPHLQERVDKGIETDGSNLSGVSAKCAWDDLSRPPEDEEDSRSICLGTQPRRLSGKDTEQIRETLRRGLEINSKPVLPPINSQRQNGLTHDRAPSRKDSLGSDSSTAIIPHELIRTRQLESVHLKFNQESGALIPLCLRGRLLHGRHFTYKSITGDMAITFVSTGVEGAFATEEHPYAAHGPWLQILLTEEFVEKMLEDLEDLTSPEEFKLPKEYSWPEKKLKVSILPDVVFDSPLH
- binding [1]: binds
- binding [5]: binds
- binding [6]: binds
- binding [7]: binds

From article PMC5841288
